Laboratory results from doi:10.1101/368936.
Substitutions are numbered along the chain they refer to. No constants are given. Whether binding was seen depends on the method and setting. Binding seen in cells or lysates may run through a third protein. Some results given as binding are weak or reduced against the parent protein; the word gives no strength.

Amino acid sequences for entries named in this document (tags omitted). Residues count along the entry.
UniProt Q92547, residues 1-360: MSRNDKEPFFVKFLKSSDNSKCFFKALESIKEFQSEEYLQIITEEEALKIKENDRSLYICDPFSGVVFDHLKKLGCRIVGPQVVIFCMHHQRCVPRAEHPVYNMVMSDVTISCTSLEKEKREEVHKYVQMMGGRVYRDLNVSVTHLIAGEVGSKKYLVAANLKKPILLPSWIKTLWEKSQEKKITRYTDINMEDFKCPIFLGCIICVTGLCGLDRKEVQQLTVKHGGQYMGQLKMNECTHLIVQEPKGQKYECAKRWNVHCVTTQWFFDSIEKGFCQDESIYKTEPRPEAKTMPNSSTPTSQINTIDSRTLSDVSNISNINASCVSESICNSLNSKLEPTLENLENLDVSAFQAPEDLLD

How the values were obtained:
Assay in all cases: pull-down
[1] = target: T1, Biotinylated HsRAD9 pS387 peptide I-4 (human)
T1 sequence (peptide, phosphoserine at 387; biotin (position not stated)): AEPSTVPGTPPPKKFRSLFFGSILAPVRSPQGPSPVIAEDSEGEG

[2] = target: T2, Biotinylated HsRAD9 pS387 peptide Q-5 (human)
T2 sequence (peptide, phosphoserine at 387; biotin (position not stated)): T1 sequence (peptide, phosphoserine at 387; biotin (position not stated)) with V36Q, I37L

[3] = target: T3, Biotinylated HsRAD9 peptide pS387 (347-391) (human)
T3 sequence (peptide, phosphoserine at 387; biotin (position not stated)): T1 sequence (peptide, phosphoserine at 387; biotin (position not stated)) with I37L

[4] = target: T4, Biotinylated HsRAD9 pS387 peptide F-4 (human)
T4 sequence (peptide, phosphoserine at 387; biotin (position not stated)): T1 sequence (peptide, phosphoserine at 387; biotin (position not stated)) with I37F

[5] = target: T5, Biotinylated HsRAD9 pS387 peptide V-3 (human)
T5 sequence (peptide, phosphoserine at 387; biotin (position not stated)): T1 sequence (peptide, phosphoserine at 387; biotin (position not stated)) with I37L, A38V

[6] = target: T6, Biotinylated HsRAD9 pS387 peptide S-5 (human)
T6 sequence (peptide, phosphoserine at 387; biotin (position not stated)): T1 sequence (peptide, phosphoserine at 387; biotin (position not stated)) with V36S, I37L

binding [1]: binds | binding [2]: binds | binding [3]: binds | binding [4]: binds | binding [5]: binds | binding [6]: binds
Substance: N-Myc6-TEV2-hTOPBP1-1-360 (from UniProt Q92547 1-360) (domain or fragment)
